In patent US8415327B2, “Methods of and compositions for reducing cell death” (priority 2009, dated 2013):
Some results were stated once for a whole list of compounds, not compound by compound. Some compounds share one range, which may span the group rather than tell each member.

Test system: RGC-5 cells
Test: Rescue of RGC-5 cells from METC-active drugs (menadione, rotenone, antimycin A), calcein/propidium iodide viability assay
Settings: 3.16 μM, 24 hours
Protocol: Cell Culture: RGC-5 cells were cultured in Dulbecco's modified Eagle's medium (DMEM) (Mediatech, Inc., Manassas, Va.). containing 1 g/L glucose, supplemented with 10% fetal bovine serum, 100 U/mL penicillin, and 100 μg/mL streptomycin (Mediatech, Inc.). Cells were passaged every 48 to 72 hours when cells were approximately 60 to 75% confluent, replated at a 1:20 dilution in a 75 cm^2 flask in 20 ml of cell culture media and incubated at 37° C. in humidified 5% CO2. Experiments were performed in duplicate or triplicate.
Cell Treatment and Assessment of Viability: Cells were plated in 96-well plates at a density of 60 cells/mm^2 in 50 μL of media. […] Live (calcein-positive) and dead (propidium iodide-positive) cells were assessed using Image) software. Pictures were batch analyzed using a macro containing the following actions: subtract background, threshold, erode, erode, watershed, and analyze particles between the sizes of 1000 pixels and infinity. […] Each experiment was analyzed with respect to its own set of controls to account for variation in passage number of the RGC-5 cells and small differences between batches of cryopreserved RGC-5 cells.
Statistics: Viability was assessed as number of live cells/mm^2, and compared to the untreated controls of each experiment. […]

CC1=CC(=O)c2ccccc2C1=O [menadione, reference compound]
cell death caused without additional treatment: 50-70%
